Laboratory results: PubChem BioAssay AID504793 (Drosophila RNAi Screening Center, 2011)
The deposit covers about 23,000 reagents; shown is an unselected part of those with a known target gene and a result. In the full data, 62 (0.27%) were called active. 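Calls come from follow-up tests whose scores are not deposited, so confirmed genes may have low counts here; counts are not normalised per plate.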 Raw values are not corrected between plates.

Screen: 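Whole-genome screen for parts of the DNA damage checkpoint at G2/M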 (primary screen)
System: Drosophila S2R+ cells
Knock-down reagent: long dsRNA against Drosophila genes, about 0.25 µg dsRNA per well
Duration: 4 days of dsRNA, then 4 hours of drug before read-out
Treatment: doxorubicin 0.5 µM for 4 hours to cause double-strand breaks, in cells also given a low, harmless dose of dsRNA against nbs to sensitise the assay
Measurement: 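Per-well count of mitotic cells stained for phospho-histone H3 after doxorubicin exposure, used as mitotic index; counts are raw and not normalised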
Reading the numbers: mitotic cells: higher = more cells in mitosis, weaker G2 arrest
Hit rule: 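a call needs confirmation in secondary tests, with other dsRNAs and a check of mitotic timing without damage, not just a high primary count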
Meaning of the calls: active = confirmed in follow-up tests; inactive = not confirmed

| Target gene | dsRNA | mitotic cells, replicate 1 | mitotic cells, replicate 2 | call |
| --- | --- | --- | --- | --- |
| lig | DRSC07246 | 9 | – | inactive |
| lig | DRSC07247 | 1 | – | inactive |
| lig | DRSC23574 | 7 | – | inactive |
| CG13442 | DRSC06402 | 9 | – | inactive |
| CG13442 | DRSC25909 | 5 | – | inactive |
| RpL18 | DRSC11016 | 17 | – | inactive |
| RpL18 | DRSC22323 | 17 | – | inactive |
| Hesr | DRSC19965 | 14 | – | inactive |
| Trap1 | DRSC05019 | 8 | – | inactive |
| CG12517 | DRSC02173 | 6 | – | inactive |
| CG10513 | DRSC14248 | 5 | – | inactive |
| CG31233 | DRSC15888 | 5 | – | inactive |
| CG10214 | DRSC14213 | 5 | – | inactive |
| Vm34Ca | DRSC03475 | 5 | – | inactive |
| Vm34Ca | DRSC25260 | – | – | inactive |
| Dis3 | DRSC16034 | 14 | – | inactive |
| Cib2 | DRSC04535 | 7 | – | inactive |
| GramD1B | DRSC00426 | 5 | – | inactive |
| GramD1B | DRSC00591 | 5 | – | inactive |
| GramD1B | DRSC23885 | 9 | – | inactive |
| GramD1B | DRSC28705 | 5 | – | inactive |
| CG31924 | DRSC00689 | 5 | – | inactive |
| Hsc70-3 | DRSC20253 | 11 | – | inactive |
| Hsc70-3 | DRSC25105 | 13 | – | inactive |
| FoxL1 | DRSC08717 | 2 | – | inactive |
| FoxL1 | DRSC25265 | 6 | – | inactive |
| CG13443 | DRSC06403 | 7 | – | inactive |
| rsh | DRSC23355 | 4 | – | inactive |
| Edg78E | DRSC11863 | 2 | – | inactive |
| Edg78E | DRSC26712 | 6 | – | inactive |
| Rtnl1 | DRSC00851 | 8 | – | inactive |
| Rtnl1 | DRSC02684 | 8 | – | inactive |
| Rtnl1 | DRSC03122 | 8 | – | inactive |
| Rtnl1 | DRSC21698 | 5 | – | inactive |
| CG4891 | DRSC01936 | 7 | – | inactive |
| CG4891 | DRSC24341 | 6 | – | inactive |
| Hsp26 | DRSC11189 | 5 | – | inactive |
| TBC1d7 | DRSC15985 | 9 | – | inactive |
| mRpL15 | DRSC11771 | 5 | – | inactive |
| mRpL15 | DRSC24402 | 3 | – | inactive |
| CG18324 | DRSC06721 | 8 | – | inactive |
| CG18324 | DRSC26600 | 8 | – | inactive |
| Dnaaf5 | DRSC13032 | 3 | – | inactive |
| BG642163 | DRSC00342 | 4 | – | inactive |
| BG642163 | DRSC00343 | 2 | – | inactive |
| xit | DRSC18364 | 7 | – | inactive |
| beat-VII | DRSC13780 | 5 | – | inactive |
| beat-VII | DRSC14743 | 13 | – | inactive |
| beat-VII | DRSC22825 | 8 | – | inactive |
| CG18744 | DRSC15381 | 7 | – | inactive |
| CG12170 | DRSC12199 | 7 | 14 | inactive |
| Art3 | DRSC16065 | 5 | – | inactive |
| CCT1 | DRSC16877 | 99 | – | inactive |
| CCT1 | DRSC26661 | 7 | – | inactive |
| CLIP-190 | DRSC03283 | 3 | – | inactive |
| CLIP-190 | DRSC30075 | 1 | – | inactive |
| Fmo-1 | DRSC04328 | 5 | – | inactive |
| Fmo-1 | DRSC29306 | 1 | – | inactive |
| CG17192 | DRSC15186 | 16 | – | inactive |
| CG17192 | DRSC24691 | 11 | – | inactive |
| CG32809 | DRSC18507 | 8 | – | inactive |
| CG32809 | DRSC18562 | 9 | – | inactive |
| CG32809 | DRSC18592 | 4 | – | inactive |
| CG13040 | DRSC09921 | 1 | – | inactive |
| CG13040 | DRSC28429 | 14 | – | inactive |
| Nepl20 | DRSC14878 | 8 | – | inactive |
| CG3091 | DRSC18274 | 7 | – | inactive |
| tup | DRSC03627 | 8 | – | inactive |
| tup | DRSC23978 | 9 | – | inactive |
| hppy | DRSC07014 | 7 | – | inactive |
| hppy | DRSC07015 | 3 | – | inactive |
| hppy | DRSC07016 | 2 | – | inactive |
| hppy | DRSC28168 | 3 | – | inactive |
| Sms | DRSC10408 | 5 | – | inactive |
| CG5762 | DRSC15869 | 11 | – | inactive |
